Assay results: patent publication US12134616B2, “Tricyclic pesticidal compounds” (BASF SE, priority 2018, dated 2024)
Some of these results come from one statement about several compounds together.

Columns and labels:
Type in all cases: in vivo
[1] = tested on: Greenhouse Whitefly (Trialeurodes vaporariorum); experiment: Greenhouse whitefly (Trialeurodes vaporariorum) egg plant leaf disk test; details: 2500 ppm; 6 days
[2] = tested on: boll weevil (Anthonomus grandis); experiment: Boll weevil (Anthonomus grandis) microtiter diet test, egg and larval mortality; details: 2500 ppm; sprayed onto insect diet; 5 days
Description: (§1) If not otherwise specified, the test solutions are prepared as follows: The active compound is dissolved at the desired concentration in a mixture of 1:1 (vol:vol) distilled water:acteone. The test solution is prepared at the day of use. Test solutions are prepared in general at concentrations of 1000 ppm, 500 ppm, 300 ppm, 100 ppm and 30 ppm (wt/vol).
(§2) For evaluating control of boll weevil (Anthonomus grandis) the test unit consisted of 96-well-microtiter plates containing an insect diet and 5-10 A. grandis eggs. The compounds were formulated using a solution containing 75% v/v water and 25% v/v DMSO. Different concentrations of formulated compounds were sprayed onto the insect diet at 5 μl, using a custom built micro atomizer, at two replications. After application, microtiter plates were incubated at about 25±1° C. and about 75±5% relative humidity for 5 days. Egg and larval mortality was then visually assessed.

[3] = tested on: tobacco budworm (Heliothis virescens); experiment: Tobacco budworm (Heliothis virescens) microtiter diet test, egg and larval mortality; details: 2500 ppm; sprayed onto insect diet; 5 days
Description: as §1
as §2, with “of tobacco budworm (Heliothis virescens)” for “of boll weevil (Anthonomus grandis)”, “and 15-25 H. virescens” for “and 5-10 A. grandis”, “at 10” for “at 5”, “about 28±1°” for “about 25±1°”, “about 80±5%” for “about 75±5%”

[4] = tested on: green peach aphid (Myzus persicae); experiment: Green peach aphid (Myzus persicae) artificial diet/membrane test, systemic; details: 2500 ppm; pipetted into aphid diet; 3 days
Description: as §1
For evaluating control of green peach aphid (Myzus persicae) through systemic means the test unit consisted of 96-well-microtiter plates containing liquid artificial diet under an artificial membrane. The compounds were formulated using a solution containing 75% v/v water and 25% v/v DMSO. Different concentrations of formulated compounds were pipetted into the aphid diet, using a custom built pipetter, at two replications. After application, 5-8 adult aphids were placed on the artificial membrane inside the microtiter plate wells. The aphids were then allowed to suck on the treated aphid diet and incubated at about 23±1° C. and about 50±5% relative humidity for 3 days. Aphid mortality and fecundity was then visually assessed.

For CCS(=O)(=O)c1cccnc1-c1nc2cnc3c(C(F)(F)F)cccc3c2n1C [I.3], the “mortality of hatched crawlers in comparison with untreated controls” value (shortened to “mortality of hatched crawlers”) [1] was “over 75%”.

For CCS(=O)(=O)c1cccnc1-c1nc2cnc3cc(C(F)(F)F)ccc3c2n1C [I.4], the “mortality (egg and larval) in comparison with untreated controls” value (shortened to “mortality (egg and larval) in comparison”) [2] was “over 75%” and the “mortality (egg and larval) in comparison” value [3] was “over 75%”.

In the case of CCSc1cc(C(F)(F)F)cnc1-c1nc2cnc3c(C(F)(F)F)cccc3c2n1C [I.8], the “mortality (egg and larval) in comparison” value [2] is reported as “over 75%” and the “mortality (egg and larval) in comparison” value [3] is reported as “over 75%”.

For CCSc1cccnc1-c1nc2cnc3cc(C(F)(F)F)ccc3c2n1C [I.10], the “mortality (aphid) in comparison with untreated controls” value [4] was “over 75%” and the “mortality (egg and larval) in comparison” value [2] was “over 75%”.

With CCS(=O)(=O)c1cnc(-c2nc3cnc4c(OC(F)(F)F)cccc4c3n2C)c(S(=O)(=O)CC)c1 [I.13] the “mortality of hatched crawlers” value [1] was “over 75%”.

For CCSc1cc(Br)cnc1-c1nc2cnc3c(OC(F)(F)F)cccc3c2n1C [I.14], the “mortality of hatched crawlers” value [1] was “over 75%”.

With CCS(=O)(=O)c1cc(-c2ccc(F)cc2)cnc1-c1nc2cnc3c(C(F)(F)F)cccc3c2n1C [I.17] the “mortality of hatched crawlers” value [1] was “over 75%”.

CCS(=O)(=O)c1cc(-c2cccc(F)c2)cnc1-c1nc2cnc3c(C(F)(F)F)cccc3c2n1C [I.18] was tested, and the “mortality of hatched crawlers” value [1] was “over 75%”.

In the case of CCS(=O)(=O)c1cc(Br)cnc1-c1nc2cnc3c(OC(F)(F)F)cccc3c2n1C [I.19], the “mortality of hatched crawlers” value [1] is reported as “over 75%”.

CCS(=O)(=O)c1cc(-c2ccc(F)cc2)cnc1-c1nc2cnc3c(OC(F)(F)F)cccc3c2n1C [I.20] was tested, and the “mortality of hatched crawlers” value [1] was “over 75%”.

With CCS(=O)(=O)c1cc(-c2cccc(F)c2)cnc1-c1nc2cnc3c(OC(F)(F)F)cccc3c2n1C [I.21] the “mortality of hatched crawlers” value [1] was “over 75%”.

In the case of CCS(=O)(=O)c1cc(Br)cnc1-c1nc2cnc3cc(C(F)(F)F)ccc3c2n1C [I.22], the “mortality of hatched crawlers” value [1] is reported as “over 75%”.

In the case of CCSc1cc(Br)cnc1-c1nc2cnc3cc(C(F)(F)F)ccc3c2n1C [I.23], the “mortality of hatched crawlers” value [1] is reported as “over 50%”.

With CCS(=O)(=O)c1cc(-c2ccc(F)cc2)cnc1-c1nc2cnc3cc(C(F)(F)F)ccc3c2n1C [I.24] the “mortality of hatched crawlers” value [1] was “over 75%”.

For CCS(=O)(=O)c1cc(-c2ccc(F)cc2)cnc1-c1nc2cnc3c(OCC(F)(F)F)cccc3c2n1C [I.30], the “mortality of hatched crawlers” value [1] was “over 50%”.

CCS(=O)(=O)c1cncnc1-c1nc2cnc3cc(C(F)(F)F)ccc3c2n1C [I.46] was tested, and the “mortality (egg and larval) in comparison” value [2] was “over 75%” and the “mortality (egg and larval) in comparison” value [3] was “over 75%”.

For CCS(=O)(=O)c1cc(C(F)(F)F)cnc1-c1cn2c(cc(C(F)(F)F)c3ccccc32)n1 [I.57], the “mortality of hatched crawlers” value [1] was “over 50%”.

In the case of CCS(=O)(=O)c1cccnc1-c1cn2c(cc(C(F)(F)F)c3ccccc32)n1 [I.59], the “mortality of hatched crawlers” value [1] is reported as “over 75%”.

With CCS(=O)(=O)c1cc(C(F)(F)F)cnc1-c1cn2c(ccc3cc(OC(F)(F)F)ccc32)n1 [I.60] the “mortality (egg and larval) in comparison” value [2] was “over 75%” and the “mortality (egg and larval) in comparison” value [3] was “over 75%”.

CCS(=O)(=O)c1cc(C(F)(F)F)cnc1-c1cn2c(ccc3c(C(F)(F)F)cc(C(F)(F)F)cc32)n1 [I.61] was tested, and the “mortality of hatched crawlers” value [1] was “over 50%”.
